Reference: patent US20220373555A1, “Methods to detect or quantify a gadolinium-based contrast agent in a sample using a luminescent agent able to chelate a Gd3+ cation” (THE REGENTS OF THE UNIVERSITY OF CALIFORNIA, priority 2021, published 2022)
Some compounds share one wording; it may come from a single statement.

Columns and labels:
[1] = Detection of GBCA in synthetic human urine by luminescence quenching assay; conditions: for Dynamic range / Limit of detection / GBCA concentration at which response curve reaches saturation: 50% synthetic human urine, 50 mM MES pH 6.0; for Adjusted limit of detection: corrected for the 50% urine sample dilution
Method: In this assay, 3,4,3-LI(1,2-HOPO) is added to the urine sample and, in the absence of GBCAs, 1,2-HOPO groups remain available to complex other metal species. Eu^3+ is then added, and its emission is sensitized (FIG. 3). In the presence of GBCAs, however, 1,2-HOPO units acquire the Gd^3+ from the contrast agent because of their higher affinity for the metal compared to clinical ligands,^23 preventing the coordination of subsequently added Eu^3+. Thus, a drastic emission quenching is induced in presence of GBCAs.
Surine™ samples containing different amounts of GBCA are diluted down to 50% with MES solution (final concentration 50 mM, pH 6.0). 2 μL 3,4,3-LI(1,2-HOPO) (1 mM) are added to each solution, mixed for 10 s, and left to incubate at room temperature, without stirring for 10 min. 2 μL EuCl3 (1 mM) are added, mixed for 10 s and left undisturbed for 10 min before recording emission spectra from 500 to 700 nm under 315 nm excitation with a SpectraMax iD3 Multi-Mode Microplate Reader.
The limit of detection is calculated as: […]
Where ILOD is the assay response intensity at the limit of detection, Iblank is the response intensity of the blank, and σblank is the standard deviation for the blank signal.

[2] = Selectivity of the Eu3+-3,4,3-LI(1,2-HOPO) probe: optical response to Gd3+ and interfering cations; format: physicochemical; conditions: 50 μM cation; 315 nm excitation

SMILES	Dynamic range [1]	Limit of detection [1]	Dynamic range ([1]; listed as Omniscan®)	Adjusted limit of detection [1]	luminescence variation when Eu^3+ and 3,4,3-LI(1,2-HOPO) are mixed with the cation [2]	GBCA concentration at which response curve reaches saturation [1]
CNC(=O)CN(CCN(CCN(CC(=O)[O-])CC(=O)NC)CC(=O)[O-])CC(=O)[O-].[Gd+3] [Omnsican, gadodiamide]	0.9 to 50 µM	0.9 µM	0.9 to 50 µM	1.8 µM	–	–
[Ca+2] [Ca^2+]	–	–	–	–	No significant luminescence variation	–
CNC[C@H](O)[C@@H](O)[C@H](O)[C@H](O)CO.CNC[C@H](O)[C@@H](O)[C@H](O)[C@H](O)CO.O=C([O-])CN(CCN(CC(=O)[O-])CC(=O)O)CCN(CC(=O)O)C(COCc1ccccc1)C(=O)[O-].[Gd+3] (stereo not drawn) [Multihance, gadobenate dimeglumine]	2.3 to 150 µM	2.3 µM	–	4.6 µM	–	around 150 μM
[Na+] [Na^+]	–	–	–	–	No significant luminescence variation	–
[K+] [K^+]	–	–	–	–	No significant luminescence variation	–
CNC[C@H](O)[C@@H](O)[C@H](O)[C@H](O)CO.CNC[C@H](O)[C@@H](O)[C@H](O)[C@H](O)CO.O=C([O-])CN(CCN(CC(=O)[O-])CC(=O)O)CCN(CC(=O)[O-])CC(=O)O.[Gd+3] [Magnevist, gadopentetate dimeglumine]	6.1 to 150 µM	6.1 µM	–	12.2 µM	–	around 150 μM
